Data source: PubChem BioAssay AID1259424 (University of Nebraska Medical Center, 2018)

Screen: 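Find knockdowns that reproduce the expression shifts seen after KSR1 loss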 (primary screen)
System: human HCT116 colon cancer cells
Knock-down reagent: siRNA pool against human genes, 50 nM
Measurement: 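Log2 levels of six mRNAs (branched-DNA multiplex), adjusted by two reference genes and the non-targeting median, then scored against the average KSR1 knockdown pattern as Pearson r and euclidean distance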
Reading the numbers: mean correlation with KSR1 profile: higher = expression change more like KSR1 knockdown; mean distance from KSR1 profile: higher = expression change less like KSR1 knockdown
Shown is an unselected part of about 14,000 deposited reagents. 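Higher correlation or smaller distance means closer resemblance to KSR1 loss; control wells, including KSR1 knockdowns, recur on many plates.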 Further read-outs or replicates are left out here. Not given: the time to read-out.

For ST8SIA4 (ST8 alpha-N-acetyl-neuraminide alpha-2,8-sialyltransferase 4), what does the deposit list?
mean correlation with KSR1 profile: -0.431; mean distance from KSR1 profile: 1.86

With RNF11 (ring finger protein 11), what does the deposit list?
mean correlation with KSR1 profile: 0.0278; mean distance from KSR1 profile: 1.43

With HSPA9 (heat shock protein family A (Hsp70) member 9), what does the deposit list?
mean correlation with KSR1 profile: 0.828; mean distance from KSR1 profile: 1.09

With SELL (selectin L), what does the deposit list?
mean correlation with KSR1 profile: 0.069; mean distance from KSR1 profile: 1.48

How did the screen score TP53AIP1 (tumor protein p53 regulated apoptosis inducing protein 1)?
mean correlation with KSR1 profile: 0.218; mean distance from KSR1 profile: 1.35

For ITGB8 (integrin subunit beta 8), what was measured?
mean correlation with KSR1 profile: -0.212; mean distance from KSR1 profile: 2.05

Which result is listed for DUSP22 (dual specificity phosphatase 22)?
mean correlation with KSR1 profile: -0.168; mean distance from KSR1 profile: 2.8

With HSPB2 (heat shock protein family B (small) member 2), what does the deposit list?
mean correlation with KSR1 profile: 0.174; mean distance from KSR1 profile: 2.79

With NAMPT (nicotinamide phosphoribosyltransferase), how do the results read?
mean correlation with KSR1 profile: -0.885; mean distance from KSR1 profile: 1.92

What did the screen give for CHMP5 (charged multivesicular body protein 5)?
mean correlation with KSR1 profile: -0.499; mean distance from KSR1 profile: 2.79

For GNL1 (G protein nucleolar 1), what does the deposit list?
mean correlation with KSR1 profile: -0.159; mean distance from KSR1 profile: 1.88

Part of the list above, reformatted:
gene knocked down,mean correlation with KSR1 profile,mean distance from KSR1 profile
NAMPT (nicotinamide phosphoribosyltransferase),-0.885,1.92
CHMP5 (charged multivesicular body protein 5),-0.499,2.79

Further reagents:
With KCTD16 (potassium channel tetramerization domain containing 16), how do the results read?
mean correlation with KSR1 profile: -0.622; mean distance from KSR1 profile: 2.69

Which result is listed for CTNNBL1 (catenin beta like 1)?
mean correlation with KSR1 profile: -0.188; mean distance from KSR1 profile: 1.92

What is on record for IER2 (immediate early response 2)?
mean correlation with KSR1 profile: 0.0724; mean distance from KSR1 profile: 1.82

What is on record for PCDHGA3 (protocadherin gamma subfamily A, 3)?
mean correlation with KSR1 profile: -0.133; mean distance from KSR1 profile: 1.68

Which result is listed for EPOR (erythropoietin receptor)?
mean correlation with KSR1 profile: 0.0379; mean distance from KSR1 profile: 3.35

For NR0B1 (nuclear receptor subfamily 0 group B member 1), what was measured?
mean correlation with KSR1 profile: -0.523; mean distance from KSR1 profile: 1.78

With AFAP1L2 (actin filament associated protein 1 like 2), what does the deposit list?
mean correlation with KSR1 profile: 0.362; mean distance from KSR1 profile: 2.11

Which result is listed for EIF5A2 (eukaryotic translation initiation factor 5A2)?
mean correlation with KSR1 profile: -0.0528; mean distance from KSR1 profile: 1.71

Which result is listed for TPPP (tubulin polymerization promoting protein)?
mean correlation with KSR1 profile: -0.564; mean distance from KSR1 profile: 1.77

For CSN2 (casein beta), how do the results read?
mean correlation with KSR1 profile: 0.471; mean distance from KSR1 profile: 4.35

What did the screen give for SEC61G (SEC61 translocon subunit gamma)?
mean correlation with KSR1 profile: -0.183; mean distance from KSR1 profile: 2.63

With SFPQ (splicing factor proline and glutamine rich), what does the deposit list?
mean correlation with KSR1 profile: 0.22; mean distance from KSR1 profile: 2.53

With MS4A14 (membrane spanning 4-domains A14), how do the results read?
mean correlation with KSR1 profile: 0.509; mean distance from KSR1 profile: 2.12

For CYP2C19 (cytochrome P450 family 2 subfamily C member 19), how do the results read?
mean correlation with KSR1 profile: -0.644; mean distance from KSR1 profile: 2.97

With ATP5MK (ATP synthase membrane subunit k), what does the deposit list?
mean correlation with KSR1 profile: -0.532; mean distance from KSR1 profile: 2.54

Which result is listed for TNFAIP1 (TNF alpha induced protein 1)?
mean correlation with KSR1 profile: 0.232; mean distance from KSR1 profile: 1.43

With ANKRD17 (ankyrin repeat domain 17), what was measured?
mean correlation with KSR1 profile: 0.523; mean distance from KSR1 profile: 3.46
